From paper PMC11251085 come the findings set out here.

Sequences of proteins named here, by UniProt entry; tags and fusion partners are left off. A change or cut given only in a name is not applied to a line headed by its entry. A line that says so, or that is headed by a name, gives the form on record, which may keep a tag or linker.
UniProt Q99873: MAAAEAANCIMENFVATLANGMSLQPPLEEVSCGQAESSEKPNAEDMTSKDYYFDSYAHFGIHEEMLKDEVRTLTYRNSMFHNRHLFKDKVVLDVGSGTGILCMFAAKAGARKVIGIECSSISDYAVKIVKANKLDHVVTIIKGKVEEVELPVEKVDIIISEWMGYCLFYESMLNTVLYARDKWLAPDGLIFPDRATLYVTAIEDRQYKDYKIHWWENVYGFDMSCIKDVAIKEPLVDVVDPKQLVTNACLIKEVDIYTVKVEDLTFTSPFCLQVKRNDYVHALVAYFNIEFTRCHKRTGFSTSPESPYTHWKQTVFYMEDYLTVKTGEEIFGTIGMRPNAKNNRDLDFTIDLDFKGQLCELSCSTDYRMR
UniProt Q93008: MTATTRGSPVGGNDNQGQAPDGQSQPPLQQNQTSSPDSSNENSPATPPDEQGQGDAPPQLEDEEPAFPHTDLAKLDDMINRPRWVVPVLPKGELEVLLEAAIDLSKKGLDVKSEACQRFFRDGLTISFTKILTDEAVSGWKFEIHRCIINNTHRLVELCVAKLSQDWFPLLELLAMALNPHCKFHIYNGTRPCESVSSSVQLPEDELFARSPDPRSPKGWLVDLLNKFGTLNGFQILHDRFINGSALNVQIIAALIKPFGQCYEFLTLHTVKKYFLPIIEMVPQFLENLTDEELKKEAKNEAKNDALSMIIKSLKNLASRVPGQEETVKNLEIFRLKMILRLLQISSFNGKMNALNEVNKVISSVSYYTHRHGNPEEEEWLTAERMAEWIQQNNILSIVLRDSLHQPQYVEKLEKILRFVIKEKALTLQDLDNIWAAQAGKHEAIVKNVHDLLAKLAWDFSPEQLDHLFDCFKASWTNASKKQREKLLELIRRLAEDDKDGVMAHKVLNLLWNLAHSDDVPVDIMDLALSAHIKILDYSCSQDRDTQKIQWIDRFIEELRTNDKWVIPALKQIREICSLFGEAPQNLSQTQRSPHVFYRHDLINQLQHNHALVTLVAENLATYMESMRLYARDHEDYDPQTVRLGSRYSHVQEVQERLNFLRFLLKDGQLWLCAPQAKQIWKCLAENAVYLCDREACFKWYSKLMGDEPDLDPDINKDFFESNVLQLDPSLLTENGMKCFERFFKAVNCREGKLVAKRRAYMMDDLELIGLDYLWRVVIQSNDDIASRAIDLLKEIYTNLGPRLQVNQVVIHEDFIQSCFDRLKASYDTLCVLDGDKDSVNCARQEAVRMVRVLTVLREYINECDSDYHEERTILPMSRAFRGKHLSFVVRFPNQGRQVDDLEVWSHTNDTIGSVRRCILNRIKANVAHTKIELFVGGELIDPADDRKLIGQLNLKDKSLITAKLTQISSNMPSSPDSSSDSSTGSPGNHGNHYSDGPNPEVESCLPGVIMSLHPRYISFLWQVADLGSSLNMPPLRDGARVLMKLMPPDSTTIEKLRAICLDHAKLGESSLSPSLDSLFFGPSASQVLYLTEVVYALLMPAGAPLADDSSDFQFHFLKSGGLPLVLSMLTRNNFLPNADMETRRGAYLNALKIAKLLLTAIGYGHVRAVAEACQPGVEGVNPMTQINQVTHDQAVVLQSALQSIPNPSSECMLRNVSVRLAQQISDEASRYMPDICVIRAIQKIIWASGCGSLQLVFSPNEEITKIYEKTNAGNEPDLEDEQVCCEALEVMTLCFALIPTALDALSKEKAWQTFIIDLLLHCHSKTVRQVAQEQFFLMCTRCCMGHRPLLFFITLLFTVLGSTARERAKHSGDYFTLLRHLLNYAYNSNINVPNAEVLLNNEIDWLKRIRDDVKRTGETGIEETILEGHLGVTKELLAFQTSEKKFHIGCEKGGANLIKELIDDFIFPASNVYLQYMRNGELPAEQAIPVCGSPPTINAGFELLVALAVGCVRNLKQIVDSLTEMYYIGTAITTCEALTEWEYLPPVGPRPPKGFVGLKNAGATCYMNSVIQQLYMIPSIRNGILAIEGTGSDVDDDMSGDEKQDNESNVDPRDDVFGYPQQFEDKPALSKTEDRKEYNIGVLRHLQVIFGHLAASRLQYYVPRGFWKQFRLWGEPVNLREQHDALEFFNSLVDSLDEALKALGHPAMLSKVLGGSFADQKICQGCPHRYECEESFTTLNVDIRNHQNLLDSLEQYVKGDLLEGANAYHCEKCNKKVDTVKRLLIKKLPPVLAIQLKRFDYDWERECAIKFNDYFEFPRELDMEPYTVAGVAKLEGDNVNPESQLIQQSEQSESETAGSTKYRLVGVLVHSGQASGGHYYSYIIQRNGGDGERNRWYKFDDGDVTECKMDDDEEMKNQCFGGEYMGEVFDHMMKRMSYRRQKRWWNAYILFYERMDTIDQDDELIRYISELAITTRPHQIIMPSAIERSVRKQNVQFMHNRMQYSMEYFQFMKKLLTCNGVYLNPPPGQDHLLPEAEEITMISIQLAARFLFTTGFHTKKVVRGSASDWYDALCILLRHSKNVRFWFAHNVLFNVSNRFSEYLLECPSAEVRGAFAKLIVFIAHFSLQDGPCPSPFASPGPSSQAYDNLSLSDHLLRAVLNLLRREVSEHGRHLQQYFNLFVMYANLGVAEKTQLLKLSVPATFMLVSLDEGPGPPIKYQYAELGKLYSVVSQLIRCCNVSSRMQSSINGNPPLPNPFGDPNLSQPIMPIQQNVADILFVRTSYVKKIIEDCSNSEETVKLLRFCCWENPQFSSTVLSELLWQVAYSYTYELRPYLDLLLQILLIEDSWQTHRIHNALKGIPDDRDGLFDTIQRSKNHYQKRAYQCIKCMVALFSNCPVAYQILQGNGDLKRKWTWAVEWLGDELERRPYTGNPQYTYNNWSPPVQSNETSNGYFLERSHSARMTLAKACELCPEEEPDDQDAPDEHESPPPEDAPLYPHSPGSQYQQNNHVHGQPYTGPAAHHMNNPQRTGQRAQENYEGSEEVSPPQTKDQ
UniProt Q93009: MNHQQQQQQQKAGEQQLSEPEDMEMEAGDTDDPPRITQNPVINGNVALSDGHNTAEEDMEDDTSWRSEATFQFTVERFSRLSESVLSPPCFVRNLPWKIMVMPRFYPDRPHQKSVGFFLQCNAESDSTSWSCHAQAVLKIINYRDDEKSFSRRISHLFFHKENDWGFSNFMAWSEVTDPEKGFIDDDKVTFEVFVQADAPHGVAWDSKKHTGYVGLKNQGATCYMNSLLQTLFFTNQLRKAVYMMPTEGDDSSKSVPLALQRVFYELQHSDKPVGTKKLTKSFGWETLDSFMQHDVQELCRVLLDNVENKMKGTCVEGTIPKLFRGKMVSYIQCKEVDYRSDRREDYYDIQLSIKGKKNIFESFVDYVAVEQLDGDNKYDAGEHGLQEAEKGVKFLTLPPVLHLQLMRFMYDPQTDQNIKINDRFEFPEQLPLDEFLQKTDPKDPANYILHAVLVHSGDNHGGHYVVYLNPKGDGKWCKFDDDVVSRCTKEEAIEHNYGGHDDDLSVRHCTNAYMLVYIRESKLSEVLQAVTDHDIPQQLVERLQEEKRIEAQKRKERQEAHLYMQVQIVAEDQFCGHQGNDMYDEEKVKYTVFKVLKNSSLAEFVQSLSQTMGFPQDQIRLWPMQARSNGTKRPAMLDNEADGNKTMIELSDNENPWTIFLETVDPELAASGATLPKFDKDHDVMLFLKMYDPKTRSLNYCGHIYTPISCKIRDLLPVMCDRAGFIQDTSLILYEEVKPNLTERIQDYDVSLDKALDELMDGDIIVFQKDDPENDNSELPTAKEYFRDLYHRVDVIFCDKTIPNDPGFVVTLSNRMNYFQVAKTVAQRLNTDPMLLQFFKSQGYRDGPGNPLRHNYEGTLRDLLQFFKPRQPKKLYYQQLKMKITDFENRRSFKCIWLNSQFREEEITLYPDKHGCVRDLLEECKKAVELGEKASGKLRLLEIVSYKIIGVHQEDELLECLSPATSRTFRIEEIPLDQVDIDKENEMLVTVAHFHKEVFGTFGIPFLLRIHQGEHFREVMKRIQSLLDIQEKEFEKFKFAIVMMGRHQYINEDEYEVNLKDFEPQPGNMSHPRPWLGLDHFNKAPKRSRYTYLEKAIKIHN
hnRNPA2B1 (P22626-2, form named): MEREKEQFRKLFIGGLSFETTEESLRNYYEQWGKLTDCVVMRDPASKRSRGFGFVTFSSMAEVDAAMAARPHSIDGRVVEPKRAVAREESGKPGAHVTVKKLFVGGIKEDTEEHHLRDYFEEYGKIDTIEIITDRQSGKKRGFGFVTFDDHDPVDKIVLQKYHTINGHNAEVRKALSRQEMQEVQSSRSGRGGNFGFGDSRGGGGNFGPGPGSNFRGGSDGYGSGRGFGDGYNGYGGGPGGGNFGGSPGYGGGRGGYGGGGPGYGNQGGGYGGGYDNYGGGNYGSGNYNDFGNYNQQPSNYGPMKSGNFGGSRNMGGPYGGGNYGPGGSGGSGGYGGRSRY

Results are given in words; binding and its absence hold for the method and conditions named. Binding seen in cells or lysates may run through a third protein. These calls come from enrichment with a bait or labelling near it, and not all partners need be listed.

The test deals with 3×Flag-PRMT1 (UniProt Q99873). Briefly: affinity purification with mass spectrometry; 3×Flag-PRMT1 complex purified from A549-Flag-PRMT1 cells via anti-Flag immunoaffinity chromatography, then mass spectrometry.
With “USP9X (from UniProt Q93008 1-2554) (enzyme)”, the binding result is on record as “binds”. Consider “USP7 (from UniProt Q93009 1-1102) (enzyme)”, for which the binding result was “binds”.

For the substance hnRNPA2B1 (from UniProt P22626-2 1-341), the binding result was “binds”.
